“Also recorded” adds a separate entry of the source.
Assays:
Sprague Dawley rats [1] = test: Tail flick antinociception assay; details: 8 days, s.c. twice daily
Sprague Dawley rats [2] = test: Hot plate antinociception assay; details: 8 days, s.c. twice daily

CN1CC[C@]23c4c5ccc(O)c4O[C@H]2[C@@H](O)C=C[C@H]3[C@H]1C5 [morphine]
Total antinociception (AUC), tail flick (Sprague Dawley rats [1]): higher than UTA1003; also recorded: lower than UTA1003/morphine group | Total antinociception (AUC), hot plate (Sprague Dawley rats [2]): higher than UTA1003; also recorded: lower than UTA1003/morphine group
